# Measured values: PubChem BioAssay AID1347076 (National Center for Advancing Translational Sciences (NCATS), 2019)
# About 13,000 (3.2%) of roughly 400,000 compounds were called active. Inconclusive means that the source gave no clear call. Such entries were picked first, then a sample of the others. Calls come from the whole dose curve; as a rule, active = well fitted cell-killing curve with a large enough effect; inconclusive = small, poorly fitted or top-dose-only effect, or effect the other way; inactive = flat fitted curve, though single readings scatter. Potencies of inconclusive entries are doubtful fits and often do not repeat. Where a SMILES comes first, the peptide text is derived from it.
# Test: qHTS assay for MDR1-selective chemotherapeutics: Primary screen using the drug-selected MDR subline cells KB-V1; note: nearly all actives have a fitted effect of over 60% in size
# Conditions: KB-V1 MDR cells viability, CellTiter-Glo, 72 h; activity change, negative = cytotoxicity: at 46.1 µM (top of the series)
# Method in brief: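 Potencies derive from concentration-effect curves fitted to normalized luminescence (CellTiter-Glo) of KB-V1 cells treated for 72 h at 37 degrees C in phenol-red-free DMEM containing 10% FBS.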
# % is set by controls: 0 for no effect and ±100 for the full control effect; potency is the fitted concentration of half-maximal effect.
Structure (SMILES),"activity change, negative = cytotoxicity",Potency
CC(NC(=O)c1ccc2c(c1)OCO2)C1CCCO1 (centres undefined),inactive: -3.02%,
Cc1ccc(-n2c(-c3ccccc3)nnc2-c2cccs2)cc1,inactive: -0.819%,
COc1ccc(NC(=O)c2ccc(OCC3CCCO3)cc2)cc1Cl (centres undefined),,"inconclusive: 23.1 µM [cytotoxic, single point]"
COc1ccc(C(=O)NCc2nnc(SCC(=O)N3CCc4ccccc43)n2C2CCCCC2)cc1,,"inconclusive: 29.1 µM [rising, single point]"
O=C(Cn1nnc2ccccc2c1=O)NCCc1ccccc1,,"inconclusive: 16.4 µM [cytotoxic, partial curve, poor fit]"
COc1cc(Cc2nc3ccccc3n2C(C)c2nc3ccccc3[nH]2)cc(OC)c1 (centres undefined),,"inconclusive: 5.17 µM [cytotoxic, partial curve, poor fit]"
CCc1nn(CC(=O)NCCCN2CCN(CC)CC2)c(=O)c2cc3occc3n12,inconclusive: 26.4%,"inconclusive: 13 µM [rising, partial curve]"
CN(C)/C=N/c1sc2c(c1C#N)CCCCC2,,"inconclusive: 16.4 µM [cytotoxic, single point]"
COc1cccc2sc(N(CCCN(C)C)C(=O)C(c3ccccc3)c3ccccc3)nc12,,"inconclusive: 16.4 µM [cytotoxic, single point]"
CCOc1ccc(Cl)cc1S(=O)(=O)N1CCN(c2ccc(C)c(C)c2)CC1,,active: 14.6 µM
Fc1ccc(-c2nn3c(C4COc5ccccc5O4)nnc3s2)cc1 (centres undefined),,"inconclusive: 16.4 µM [cytotoxic, partial curve, poor fit]"
CC(=O)N1c2ccc(S(=O)(=O)N(C)CC(=O)N3CCCC3)cc2CC1C (centres undefined),,"inconclusive: 16.4 µM [rising, partial curve, poor fit]"
Cc1ccc2nc(COc3ccccc3NC(=O)c3ccccc3F)cc(=O)n2c1,inactive: -8.42%,
Cc1ccc2c(c1)c(CC(=O)Nc1ccc(C)c(F)c1)c(C(=O)O)n2C,,"inconclusive: 18.4 µM [rising, single point]"
Cc1cc(Br)ccc1NCc1ccccn1,,"inconclusive: 23.1 µM [cytotoxic, single point]"
CC(=O)NC(Cc1ccccc1)C(=O)NC(Cc1ccccc1)C(=O)O (stereo not drawn) (Ac-Phe-Phe-OH; configuration not given here),,"inconclusive: 2.31 µM [rising, partial curve, poor fit]"
O=C(c1ccc2c(c1)N(Cc1c(F)cccc1Cl)C(=O)c1ccccc1S2)N1CCOCC1,inactive: 0%,
Cn1c(=O)n(C)c2cc([N+](=O)[O-])c(N3CCN(S(=O)(=O)c4ccc5ccccc5c4)CC3)cc21,,"inconclusive: 29.1 µM [cytotoxic, single point]"
CCCNC(=O)c1ccc(-c2nc(CS(=O)(=O)c3ccc(C)cc3)c(C)o2)cc1,,"inconclusive: 5.17 µM [cytotoxic, full curve]"
CCc1ccc2c(c1)cc(CN(Cc1ccco1)C(C)=O)c1nnnn12,,"inconclusive: 16.4 µM [cytotoxic, partial curve, poor fit]"
Cc1ccsc1/C=N/n1cnc2sc(C)c(C)c2c1=O,,"inconclusive: 8.2 µM [cytotoxic, partial curve]"

# In the list so far, these contain a COOH group.
Structure (SMILES),"activity change, negative = cytotoxicity",Potency
Cc1ccc2c(c1)c(CC(=O)Nc1ccc(C)c(F)c1)c(C(=O)O)n2C,,"inconclusive: 18.4 µM [rising, single point]"
CC(=O)NC(Cc1ccccc1)C(=O)NC(Cc1ccccc1)C(=O)O (stereo not drawn) (Ac-Phe-Phe-OH; configuration not given here),,"inconclusive: 2.31 µM [rising, partial curve, poor fit]"

# Following part

Structure (SMILES),"activity change, negative = cytotoxicity",Potency
Cc1ccsc1C(=O)OCC(=O)NC1CCCC1,,"inconclusive: 29.1 µM [rising, single point]"
COc1ccc(N(CC(=O)Nc2cccc(C(C)=O)c2)S(=O)(=O)c2ccccc2)c(OC)c1,,"inconclusive: 29.1 µM [cytotoxic, single point]"
CS(=O)(=O)N(CC(=O)NCCSCc1cccc(Cl)c1)c1ccccc1F,,"inconclusive: 20.6 µM [cytotoxic, single point]"
O=C(NCCc1nc(-c2ccc(F)cc2)no1)c1ccc(F)cc1,inactive: 16.3%,
Cc1cc(N2CCOCC2)nc2ccc(NC(=O)CCC(=O)N3CCCCC3)cc12,inactive: -9.42%,
CCn1c(SCc2nc3scc(-c4ccccc4)c3c(=O)[nH]2)nnc1-c1cccs1,inactive: 0%,
O=C(COC(=O)c1ccco1)NCCc1ccc(Cl)cc1,,"inconclusive: 1.84 µM [rising, partial curve, poor fit]"
CCc1nc2ccccc2c(C(=O)Oc2cccc3cccnc23)c1C,,"inconclusive: 14.6 µM [cytotoxic, single point]"
COc1ccc2c(Sc3ccc(C)cc3)c(C(=O)NCCc3ccccc3)[nH]c2c1,,"inconclusive: 8.2 µM [rising, partial curve, poor fit]"
CCc1ccc(OCC(O)CN2CCC(CN3C(=O)c4cccc5cccc(c45)C3=O)CC2)cc1 (centres undefined),,"inconclusive: 25.9 µM [cytotoxic, partial curve, poor fit]"
O=C(CSc1nc(-c2cccs2)nc2cc(=O)[nH]n12)Nc1cccc(C(F)(F)F)c1,inactive: -23.6%,
Cc1c(C)c2ccc(OCC(=O)Nc3ccc(CN4CCOCC4)cc3)cc2oc1=O,,"inconclusive: 29.1 µM [rising, single point]"
CCOC(=O)N1CCN(C(=O)CSCc2ccc(Br)cc2)CC1,,"inconclusive: 23.1 µM [cytotoxic, partial curve]"
COc1cc(/C=C/c2nc(-c3ccccc3O)n[nH]2)cc(OC)c1OC,,"inconclusive: 23.1 µM [cytotoxic, single point]"
CCOC(=O)c1ccc(N2CCOCC2)c(NC(=O)c2c(-c3ccccc3)noc2C)c1,,"inconclusive: 0.82 µM [cytotoxic, partial curve, poor fit]"
Cc1ccccc1C(=O)N1CCC(C(=O)Nc2ccc(C)c(S(=O)(=O)N3CCCCC3)c2)CC1,inconclusive: -35.3% [cytotoxic],
COc1ccc(C2CC(c3cccs3)=NN2C(=O)CSc2nnnn2C)cc1OC (centres undefined),inactive: 0.928%,
CCC(COC(=O)Nc1cccc(C)c1C)NC(=O)OCC(C)C (centres undefined),,active: 9.2 µM
CC1(C)Cc2cccc(OCC(=O)NCCc3ccc(S(N)(=O)=O)cc3)c2O1,,active: 25.9 µM
C=CCN(CC=C)c1nc2ccccc2nc1C(C#N)C(=O)OCCOC (centres undefined),,"inconclusive: 5.8 µM [cytotoxic, partial curve]"
Cc1cc(C)n2nc(SC(C)C(=O)Nc3ccc(Cl)cn3)nc2n1 (centres undefined),,"inconclusive: 8.2 µM [cytotoxic, partial curve]"

Structure (SMILES),"activity change, negative = cytotoxicity",Potency
CC(=O)c1ccc(S(=O)(=O)NCC(=O)NC(c2nc3ccccc3[nH]2)C(C)C)cc1 (centres undefined),,"inconclusive: 29.1 µM [rising, single point]"
CCN(Cc1ccccc1)S(=O)(=O)c1cc(C(=O)OC)n(C)c1,inactive: -21.3%,
CN1CCN(/N=C/c2nc(-c3ccc(Cl)cc3)n3ccccc23)CC1,,"inconclusive: 23.1 µM [cytotoxic, single point]"
O=C(c1ccc(Cl)nc1)N1CCN(C/C=C/c2ccccc2)CC1,,"inconclusive: 23.1 µM [cytotoxic, single point]"
COc1ccc(CCn2c(O)cc3nn(-c4nc5ccccc5s4)c(=O)c-3c2C)cc1,,"inconclusive: 10.3 µM [cytotoxic, partial curve]"
Cc1cc(C)c(O)c(-c2cc(C(=O)Nc3ccc(S(=O)(=O)N4CCOCC4)cc3)[nH]n2)c1,,"inconclusive: 29.1 µM [cytotoxic, single point]"
CC1=NN(c2nc3ccccc3[nH]2)C(=O)/C1=C/N(C)C,inconclusive: -35.8% [cytotoxic],
COc1ccc(CCNC(c2ccc(F)cc2)c2nnc(-c3ccccc3Cl)o2)cc1OC (centres undefined),,"inconclusive: 5.17 µM [cytotoxic, partial curve]"
CC1CCOC2(O1)C(=O)N(CN1CCN(c3cccc(Cl)c3)CC1)c1ccccc12 (centres undefined),inactive: -4.17%,
COCCOCCn1c(/C=C/c2ccccc2)nc2ccccc21,,"inconclusive: 8.2 µM [cytotoxic, partial curve]"
O=C(Cc1ccc([N+](=O)[O-])cc1)Nc1cc(C(F)(F)F)cc(C(F)(F)F)c1,,"inconclusive: 16.4 µM [cytotoxic, single point]"
COc1ccc(CCN2C(=O)N(c3ccc(C)cc3)C(=O)C2CC(=O)Nc2ccc(F)cc2)cc1 (centres undefined),,"inconclusive: 32.6 µM [cytotoxic, single point]"
CNC(=O)c1cc2c(s1)-c1ccccc1CC2,,"inconclusive: 18.4 µM [cytotoxic, single point]"
COCCCC1CCN(Cc2cn[nH]c2-c2cc(OC)c(OC)c(OC)c2)CC1,,"inconclusive: 32.6 µM [cytotoxic, partial curve, poor fit]"
CNC(=S)NNC(=O)c1ccc(C(C)(C)C)cc1,,"inconclusive: 18.4 µM [cytotoxic, single point]"
COc1ccccc1CN1CC(C(=O)NCCc2ncccc2C)CCC1=O (centres undefined),,"inconclusive: 29.1 µM [rising, single point]"
C#CCOCCOCCOCCNc1nc(N2CCN(C(=O)C([C@@H](C)CC)n3cc(C(N)COC(=O)C(F)(F)F)nn3)CC2)nc(N2CCN(C(=O)[C@H](Cc3ccc(O)cc3)n3cc(C(N)[C@H](C)CC)nn3)CC2)n1 (some centres undefined),,"inconclusive: 25.9 µM [rising, single point]"
O=C(/C=C/c1cn(-c2ccccc2)nc1-c1cccnc1)c1ccco1,,active: 20.6 µM
Cc1ccc(OCC(=O)Nc2ccc3c(c2)CCC3)c([N+](=O)[O-])n1,,"inconclusive: 16.4 µM [cytotoxic, single point]"
COc1ccc(C2CC(C(F)(F)F)n3nc(C(=O)NCc4cn(C)nc4C)c(Cl)c3N2)cc1 (centres undefined),,"inconclusive: 25.9 µM [cytotoxic, partial curve, poor fit]"
CCOC(=O)c1c(NC(=O)C(Sc2ccccc2)c2ccccc2)sc(C(N)=O)c1C (centres undefined),,"inconclusive: 25.9 µM [cytotoxic, single point]"
